Cleaved PARP after 72 h of treatment

From a melanoma drug combination screen (doi:10.1371/journal.pone.0140310); values rounded.

Compounds and concentrations:
YM155, 0.002 µM: COCC[n+]1c2c(n(Cc3cnccn3)c1C)C(=O)c1ccccc1C2=O
darinaparsin, 2 µM: C[As](C)SC[C@H](NC(=O)CC[C@H](N)C(=O)O)C(=O)NCC(=O)O
AZD7762, 0.1 µM: NC(=O)Nc1cc(-c2cccc(F)c2)sc1C(=O)N[C@H]1CCCNC1
SU6656, 2 µM: CN(C)S(=O)(=O)c1ccc2c(c1)/C(=C/c1cc3c([nH]1)CCCC3)C(=O)N2
tamatinib, 2 µM: COc1cc(Nc2ncc(F)c(Nc3ccc4c(n3)NC(=O)C(C)(C)O4)n2)cc(OC)c1OC
MK-2206, 2 µM: NC1(c2ccc(-c3nc4ccn5c(=O)[nH]nc5c4cc3-c3ccccc3)cc2)CCC1
perifosine, 2 µM: CCCCCCCCCCCCCCCCCCOP(=O)([O-])OC1CC[N+](C)(C)CC1
fludarabine, 1 µM: Nc1nc(F)nc2c1ncn2[C@@H]1O[C@H](CO)[C@@H](O)[C@@H]1O
pazopanib, 2 µM: Cc1ccc(Nc2nccc(N(C)c3ccc4c(C)n(C)nc4c3)n2)cc1S(N)(=O)=O
ruxolitinib, 5 µM: N#CC[C@H](C1CCCC1)n1cc(-c2ncnc3[nH]ccc23)cn1
temozolomide, 10 µM: Cn1nnc2c(C(N)=O)ncn2c1=O
L-779450, 1 µM: Oc1cc(-c2nc(-c3ccccc3)[nH]c2-c2ccncc2)ccc1Cl
LFM-A13, 10 µM: C/C(O)=C(\C#N)C(=O)Nc1cc(Br)ccc1Br
palbociclib, 0.2 µM: CC(=O)c1c(C)c2cnc(Nc3ccc(N4CCNCC4)cn3)nc2n(C2CCCC2)c1=O

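Human melanoma cells were exposed to a pair of drugs for 72 h in 1,536-well plates and read by automated microscopy after fixing and staining. The read-out is the fraction of cleaved-PARP-positive nuclei, in % of that fraction in the DMSO control; 200 means twice the control level of this apoptosis marker. Every drug was used at one fixed concentration, the higher of two screened. No replicate spread is given; individual values may be noisy. Basal and induced levels differ widely between cell lines.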
An unselected part of the screen is shown.
An entry leaves out what has no value listed here.

With LFM-A13 + fludarabine the screen read COLO 829: 168; SK-MEL-30: 992; RPMI-7951: 117; RVH-421: 171; WM451Lu: 186; A2058: 76.4; SK-MEL-5: 2890. AZD7762 + temozolomide gave COLO 829: 153; SK-MEL-30: 562; RPMI-7951: 111; RVH-421: 29.6; WM451Lu: 194; A2058: 2130; WM1745: 124; SK-MEL-5: 257. Results for MK-2206 + L-779450 are COLO 829: 132; SK-MEL-30: 107; RPMI-7951: 64.4; RVH-421: 131; WM451Lu: 579; A2058: 160; SK-MEL-5: 117. tamatinib + MK-2206 gave COLO 829: 119; SK-MEL-30: 184; RPMI-7951: 273; RVH-421: 327; WM451Lu: 154; A2058: 172; WM1745: 238; SK-MEL-5: 313. With ruxolitinib + pazopanib the screen read COLO 829: 188; SK-MEL-30: 84.1; RPMI-7951: 152; RVH-421: 161; WM451Lu: 102; A2058: 169; WM1745: 144; SK-MEL-5: 131.

Results for darinaparsin + tamatinib are COLO 829: 78.6; SK-MEL-30: 90.4; RPMI-7951: 155; RVH-421: 64.4; WM451Lu: 205; A2058: 141; WM1745: 186; SK-MEL-5: 258. For MK-2206 + pazopanib the values were COLO 829: 31.0; SK-MEL-30: 151; RPMI-7951: 92.2; RVH-421: 72.0; WM451Lu: 90.9; A2058: 91.4; WM1745: 117; SK-MEL-5: 73.6. fludarabine + MK-2206 gave COLO 829: 124; SK-MEL-30: 1970; RPMI-7951: 263; RVH-421: 116; WM451Lu: 99.3; A2058: 96.8; WM1745: 131; SK-MEL-5: 2000. L-779450 + palbociclib gave COLO 829: 139; SK-MEL-30: 134; RPMI-7951: 68.2; RVH-421: 134; WM451Lu: 619; A2058: 145; SK-MEL-5: 152. For L-779450 + pazopanib the values were COLO 829: 285; SK-MEL-30: 128; RPMI-7951: 189; RVH-421: 93.9; WM451Lu: 338; A2058: 218; SK-MEL-5: 54.7.

With ruxolitinib + YM155 the screen read COLO 829: 150; SK-MEL-30: 75.3; RPMI-7951: 179; RVH-421: 152; WM451Lu: 245; A2058: 996; WM1745: 117; SK-MEL-5: 4120. With tamatinib + perifosine the screen read COLO 829: 144; SK-MEL-30: 141; RPMI-7951: 1280; RVH-421: 119; WM451Lu: 341; A2058: 360; WM1745: 407; SK-MEL-5: 190. With AZD7762 + perifosine the screen read COLO 829: 157; SK-MEL-30: 139; RPMI-7951: 250; RVH-421: 38.9; WM451Lu: 30.0; A2058: 401; WM1745: 144; SK-MEL-5: 50.6. SU6656 + palbociclib gave COLO 829: 55.6; SK-MEL-30: 118; RPMI-7951: 186; RVH-421: 202; WM451Lu: 93.4; A2058: 121; WM1745: 96.9; SK-MEL-5: 74.5. For perifosine + darinaparsin the values were COLO 829: 41.9; SK-MEL-30: 101; RPMI-7951: 464; RVH-421: 171; WM451Lu: 96.3; A2058: 121; WM1745: 104; SK-MEL-5: 104.

With darinaparsin + YM155 the screen read COLO 829: 237; SK-MEL-30: 400; RPMI-7951: 310; RVH-421: 58.0; WM451Lu: 1070; A2058: 1150; WM1745: 147; SK-MEL-5: 3190. With temozolomide + YM155 the screen read COLO 829: 177; SK-MEL-30: 374; RPMI-7951: 310; RVH-421: 55.2; WM451Lu: 490; A2058: 1350; WM1745: 84.4; SK-MEL-5: 970. Results for LFM-A13 + tamatinib are COLO 829: 193; SK-MEL-30: 80.7; RPMI-7951: 382; RVH-421: 104; WM451Lu: 229; A2058: 137; WM1745: 443; SK-MEL-5: 46.9. Results for LFM-A13 + darinaparsin are COLO 829: 134; SK-MEL-30: 131; RPMI-7951: 98.7; RVH-421: 56.9; WM451Lu: 463; A2058: 106; WM1745: 114; SK-MEL-5: 96.6. Results for LFM-A13 + temozolomide are COLO 829: 114; SK-MEL-30: 156; RPMI-7951: 80.4; RVH-421: 210; WM451Lu: 31.2; A2058: 284; WM1745: 102; SK-MEL-5: 120.

For MK-2206 + perifosine the values were COLO 829: 113; SK-MEL-30: 186; RPMI-7951: 103; RVH-421: 1110; WM451Lu: 89.7; A2058: 113; WM1745: 119; SK-MEL-5: 205. With palbociclib + fludarabine the screen read COLO 829: 190; SK-MEL-30: 1310; RPMI-7951: 159; RVH-421: 147; WM451Lu: 97.1; A2058: 102; WM1745: 125; SK-MEL-5: 2950. darinaparsin + temozolomide gave COLO 829: 168; SK-MEL-30: 31.4; RPMI-7951: 115; RVH-421: 129; WM451Lu: 182; A2058: 417; WM1745: 89.1; SK-MEL-5: 226. Results for fludarabine + AZD7762 are COLO 829: 102; SK-MEL-30: 2550; RPMI-7951: 235; RVH-421: 148; WM451Lu: 381; A2058: 528; WM1745: 299; SK-MEL-5: 1770. SU6656 + pazopanib gave COLO 829: 79.3; SK-MEL-30: 81.7; RPMI-7951: 221; RVH-421: 134; WM451Lu: 168; A2058: 139; WM1745: 152; SK-MEL-5: 131.

palbociclib + LFM-A13 gave COLO 829: 77.9; SK-MEL-30: 74.4; RPMI-7951: 60.6; RVH-421: 155; WM451Lu: 479; A2058: 45.6; SK-MEL-5: 88.2. ruxolitinib + fludarabine gave COLO 829: 192; SK-MEL-30: 860; RPMI-7951: 113; RVH-421: 141; WM451Lu: 44.4; A2058: 170; WM1745: 143; SK-MEL-5: 1300. L-779450 + tamatinib gave COLO 829: 296; SK-MEL-30: 38.9; RPMI-7951: 902; RVH-421: 184; WM451Lu: 673; A2058: 290; WM1745: 545; SK-MEL-5: 119. With tamatinib + ruxolitinib the screen read COLO 829: 79.6; SK-MEL-30: 69.6; RPMI-7951: 201; RVH-421: 104; WM451Lu: 92.8; A2058: 418; WM1745: 392; SK-MEL-5: 122. With ruxolitinib + palbociclib the screen read COLO 829: 126; SK-MEL-30: 61.6; RPMI-7951: 88.7; RVH-421: 121; WM451Lu: 194; A2058: 118; WM1745: 92.6; SK-MEL-5: 178.

darinaparsin + MK-2206 gave COLO 829: 146; SK-MEL-30: 168; RPMI-7951: 100; RVH-421: 100; WM451Lu: 153; A2058: 201; WM1745: 108; SK-MEL-5: 534. LFM-A13 + SU6656 gave COLO 829: 137; SK-MEL-30: 88.1; RPMI-7951: 99.7; RVH-421: 83.8; WM451Lu: 178; A2058: 71.7; WM1745: 188; SK-MEL-5: 71.3. Results for temozolomide + L-779450 are COLO 829: 69.5; SK-MEL-30: 72.2; RPMI-7951: 76.0; RVH-421: 48.5; WM451Lu: 126; A2058: 477; WM1745: 155; SK-MEL-5: 157. Results for AZD7762 + SU6656 are COLO 829: 71.6; SK-MEL-30: 275; RPMI-7951: 389; RVH-421: 143; WM451Lu: 184; A2058: 372; WM1745: 207; SK-MEL-5: 169. With AZD7762 + tamatinib the screen read COLO 829: 242; SK-MEL-30: 164; RPMI-7951: 124; RVH-421: 54.1; WM451Lu: 137; A2058: 234; WM1745: 296; SK-MEL-5: 223.

For reference, 2 entries once more:

- perifosine + darinaparsin | COLO 829: 41.9; SK-MEL-30: 101; RPMI-7951: 464; RVH-421: 171; WM451Lu: 96.3; A2058: 121; WM1745: 104; SK-MEL-5: 104
- tamatinib + ruxolitinib | COLO 829: 79.6; SK-MEL-30: 69.6; RPMI-7951: 201; RVH-421: 104; WM451Lu: 92.8; A2058: 418; WM1745: 392; SK-MEL-5: 122